Experimental findings from paper PMC9507130 are described below.

Results are given in words; binding and its absence hold for the method and conditions named.

The target in the test is T1, YPE module alone (Ypt35(PX)-Envy) (S. cerevisiae) (UniProt P38815).
T1 sequence: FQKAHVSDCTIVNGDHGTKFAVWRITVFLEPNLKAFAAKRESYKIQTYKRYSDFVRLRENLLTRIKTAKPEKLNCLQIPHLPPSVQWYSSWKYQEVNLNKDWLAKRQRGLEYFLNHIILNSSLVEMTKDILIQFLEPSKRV
Put plainly: subcellular recruitment assay (live-cell fluorescence microscopy); mScarletI-tagged prey scored as puncta per cell in yeast that express Envy-tagged Vrl1 constructs or chimeras anchored to endosomes by the Ypt35 PX domain (YPE); some experiments in a vin1Δ strain.

B1: Vin1^1-116-mScI (domain or fragment, UniProt P36158 1-116)
chain: MENDKASHASPSIGVNEFVVQGEISIDDSERSVKSVSVSISDDEDSKTDVQDNMATPSTRSKFQTDLAIDNRLLEKDPKYKKLFTEKRRRRRPESCINLMTKGKGTGQKDNINDQI
As to B1, the binding entry is reported as “no binding”.

B2: Vps5^1-276-mScI (domain or fragment, UniProt Q92331 1-276)
chain: MDYEDNLEAPVWDELNHEGDKTQSLVSNSIESIGQISTNEERKDNELLETTASFADKIDLDSAPEWKDPGLSVAGNPQLEEHDNSKADDLINSLAPEQDPIADLKNSTTQFIATRESGGALFTGNANSPLVFDDTIYDANTSPNTSKSISGRRSGKPRILFDSARAQRNSKRNHSLKAKRTTASDDTIKTPFTDPLKKAEKENEFVEEPLDDRNERRENNEGKFTASVEKNILEQVDRPLYNLPQTGANISSPAEVEENSEKFGKTKIGSKVPPTE
Turning to B2, the binding result was “no binding”.
